Results published in patent EP0679394B1, “Menatetronome derivative as antiarteriosclerotic agent” (Eisai Co., Ltd., priority 1994, dated 1995).

Tested on: arteriosclerotic rats
Test: Effect of vitamin K2 on arteriosclerotic rats (vitamin D2-induced calcification)
Assay type: in vivo
Conditions: Group A: vitamin D2 2.5 × 10^5 IU/kg/day p.o. alone
Protocol: Then vitamin D2, vitamin D2 with vitamin K2 (in a low dose), and vitamin D2 with vitamin K2 (in a high dose) were given respectively to the groups A, B and C.
After feeding for five weeks, the urine of each group was sampled for a period of 20 hours and the urinary calcium, phosphorus and creatinine levels were measured.
After feeding for six weeks, the animals of each group were bled to death and the blood, aorta (from the aortic arch to the thoracic aorta) and kidneys were sampled.
The serum was separated from the blood and the serum calcium and phosphorus levels were measured.
The aorta and kidneys were defatted, dehydrated and incinerated and the calcium and phosphorus contents therein were determined.
The calcium concentrations were determined by atomic absorption spectrophotometry. The inorganic phosphorus concentrations were determined by Goldenberg's method. The creatinine concentrations were determined by the enzymatic method.
(The data of each group were compared with those of the control group according to the t-test method.)

[1] = urine sampled for 20 hours after five weeks

C=C1CC[C@H](O)C/C1=C/C=C1\CCC[C@]2(C)[C@@H]([C@H](C)/C=C/[C@H](C)C(C)C)CC[C@@H]12 [vitamin D2]
Serum Ca (6 weeks, n=8): 9.8 ± 1.4 mg/dL | Serum P (6 weeks, n=8): 8.2 ± 1.4 mg/dL | Urine Ca [1]: 1.9 ± 1.0 mg/dL | Urine P [1]: 59.1 ± 20.2 mg/dL | Urine creatinine [1]: 77.2 ± 22.8 mg/dL | Urine urine volume [1]: 18.6 ± 12.3 mL
